Reference: PubChem BioAssay AID1117269 (University of Michigan, 2014)

Assay: 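Kinome-wide knockdown screen for regulators of TGF-beta reporter output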 (primary screen)
System: human A549 lung cancer and 1833 breast cancer (MDA-MB-231-derived) cell lines carrying a stable BTR luciferase reporter
Reagents: siRNA pool against human genes
Duration: 72 h after transfection, then 1 h TGF-beta before the read
Treatment: TGF-beta 10 ng/mL added one hour before luciferin and read-out
Measured: 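BTR reporter bioluminescence as fold change relative to non-targeting siRNA, averaging triplicates per line; knockdown for 72 h, then TGF-beta at 10 ng/mL 1 h prior to reading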
Direction: fold over scrambled siRNA, A549 and fold over scrambled siRNA, 1833: higher = more reporter light, weaker TGF-beta receptor signalling
Call rule: 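Hit in either line counts as active; per-line hits lie above an upper limit from quartiles of averaged log fold values, in plate and screen-wide analyses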
Meaning of the calls: active = hit in at least one line; inactive = hit in neither line
The deposit covers 714 reagents; below is a part drawn at random. 49 of them (6.9%) count as active. 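Active means a hit in at least one line; per-line hit columns show which; some siRNA pools appear more than once.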 Some reagents were tested in more than one well and are listed for each. The record does not give: the amount of reagent.

gene symbol | fold over scrambled siRNA, A549 | fold over scrambled siRNA, 1833 | hit in A549 | hit in 1833 | Call
JAK2 | 17.3 | 18.8 | hit in A549 | hit in 1833 | active
STK32B | 2.76 | 5.56 | not a hit in A549 | not a hit in 1833 | inactive
TAOK1 | 1.41 | 1 | not a hit in A549 | not a hit in 1833 | inactive
GNE | 2.06 | 4.3 | not a hit in A549 | not a hit in 1833 | inactive
RAF1 | 3.19 | 4.35 | not a hit in A549 | not a hit in 1833 | inactive
GAK | 1.26 | 5.49 | not a hit in A549 | not a hit in 1833 | inactive
CDK16 | 1.37 | 3.26 | not a hit in A549 | not a hit in 1833 | inactive
MAPK14 | 1.93 | 2.49 | not a hit in A549 | not a hit in 1833 | inactive
DGKD | 2 | 2.76 | not a hit in A549 | not a hit in 1833 | inactive
CAMKK1 | 1.1 | 8.73 | not a hit in A549 | not a hit in 1833 | inactive
CAMKK1 | 1.52 | 5.73 | not a hit in A549 | not a hit in 1833 | inactive
MPP3 | 0.952 | 0.905 | not a hit in A549 | not a hit in 1833 | inactive
CKS1B | 3.6 | 3.93 | not a hit in A549 | not a hit in 1833 | inactive
PANK1 | 5.67 | 4.04 | hit in A549 | not a hit in 1833 | active
PI4KB | 2.26 | 1.24 | not a hit in A549 | not a hit in 1833 | inactive
LIMK1 | 3 | 5.66 | not a hit in A549 | not a hit in 1833 | inactive
TNIK | 3.76 | 5.87 | not a hit in A549 | not a hit in 1833 | inactive
MST1R | 1.29 | 3.76 | not a hit in A549 | not a hit in 1833 | inactive
PRKAG2 | 1.7 | 3.39 | not a hit in A549 | not a hit in 1833 | inactive
TSKS | 3.71 | 19.2 | not a hit in A549 | hit in 1833 | –
PI4K2A | 5.45 | 21.4 | hit in A549 | hit in 1833 | active
STK17A | 1.1 | 2.18 | not a hit in A549 | not a hit in 1833 | inactive
PTK7 | 1.45 | 7.81 | not a hit in A549 | not a hit in 1833 | inactive
CDKL3 | 3.76 | 6.27 | not a hit in A549 | not a hit in 1833 | inactive
PIK3CG | 3.27 | 1.47 | not a hit in A549 | not a hit in 1833 | inactive
YES1 | 1.98 | 2.38 | not a hit in A549 | not a hit in 1833 | inactive
MAPK15 | 1.25 | 1.33 | not a hit in A549 | not a hit in 1833 | inactive
ALK | 1.76 | 11.9 | not a hit in A549 | hit in 1833 | –
BRD2 | 2.11 | 8.2 | not a hit in A549 | not a hit in 1833 | inactive
PDK4 | 5 | 7.78 | not a hit in A549 | not a hit in 1833 | inactive
POMK | 1.79 | 2.33 | not a hit in A549 | not a hit in 1833 | inactive
POMK | 1.03 | 3.53 | not a hit in A549 | not a hit in 1833 | inactive
BMX | 4.21 | 2.15 | not a hit in A549 | not a hit in 1833 | inactive
TEX14 | 0.644 | 1.1 | not a hit in A549 | not a hit in 1833 | inactive
STK11 | 0.634 | 1.27 | not a hit in A549 | not a hit in 1833 | inactive
CASK | 0.664 | 1.76 | not a hit in A549 | not a hit in 1833 | inactive
ADCK2 | 1.13 | 1.33 | not a hit in A549 | not a hit in 1833 | inactive
ATM | 3.29 | 5.98 | not a hit in A549 | not a hit in 1833 | inactive
NAGK | 1.31 | 1.13 | not a hit in A549 | not a hit in 1833 | inactive
PAK5 | 2.68 | 1.67 | not a hit in A549 | not a hit in 1833 | inactive
AXL | 2.08 | 1.67 | not a hit in A549 | not a hit in 1833 | inactive
SHPK | 1.86 | 1.38 | not a hit in A549 | not a hit in 1833 | inactive
PAK4 | 2.1 | 1.47 | not a hit in A549 | not a hit in 1833 | inactive
PRKAR2A | 0.855 | 2.27 | not a hit in A549 | not a hit in 1833 | inactive
MAGI1 | 0.524 | 1 | not a hit in A549 | not a hit in 1833 | inactive
NTRK1 | 0.905 | 1.05 | not a hit in A549 | not a hit in 1833 | inactive
MAP2K7 | 1.54 | 2.6 | not a hit in A549 | not a hit in 1833 | inactive
CDK5 | 1.14 | 1.41 | not a hit in A549 | not a hit in 1833 | inactive
PCK1 | 0.571 | 2.33 | not a hit in A549 | not a hit in 1833 | inactive
DCLK3 | 2.81 | 6.14 | not a hit in A549 | not a hit in 1833 | inactive
CKS2 | 3.81 | 6.03 | not a hit in A549 | not a hit in 1833 | inactive
PIM3 | 1.81 | 0.481 | not a hit in A549 | not a hit in 1833 | inactive
MUSK | 0.883 | 2.53 | not a hit in A549 | not a hit in 1833 | inactive
CAMKK2 | 2.05 | 4 | not a hit in A549 | not a hit in 1833 | inactive
EPHA7 | 2.5 | 7.33 | not a hit in A549 | not a hit in 1833 | inactive
TAF1L | 1.77 | 6.19 | not a hit in A549 | not a hit in 1833 | inactive
PGK2 | 0.979 | 1.73 | not a hit in A549 | not a hit in 1833 | inactive
MAP4K4 | 3.29 | 5.92 | not a hit in A549 | not a hit in 1833 | inactive
NME6 | 0.882 | 1.04 | not a hit in A549 | not a hit in 1833 | inactive
CALM1 | 4.64 | 5.33 | not a hit in A549 | not a hit in 1833 | inactive
PBK | 4.29 | 2.15 | not a hit in A549 | not a hit in 1833 | inactive
DTYMK | 1.27 | 2.98 | not a hit in A549 | not a hit in 1833 | inactive
BMP2K | 2.28 | 1.8 | not a hit in A549 | not a hit in 1833 | inactive
STK35 | 1.12 | 4.33 | not a hit in A549 | not a hit in 1833 | inactive
SKAP1 | 1.75 | 2.87 | not a hit in A549 | not a hit in 1833 | inactive
PRKCA | 2.43 | 8.86 | not a hit in A549 | not a hit in 1833 | inactive
STK31 | 1.64 | 4.27 | not a hit in A549 | not a hit in 1833 | inactive
PINK1 | 1.2 | 1.8 | not a hit in A549 | not a hit in 1833 | inactive
RIPK4 | 1.62 | 1.48 | not a hit in A549 | not a hit in 1833 | inactive
HK3 | 2.82 | 6.8 | not a hit in A549 | not a hit in 1833 | inactive
MAP3K11 | 1.59 | 3.19 | not a hit in A549 | not a hit in 1833 | inactive
PRKG2 | 3.68 | 1.43 | not a hit in A549 | not a hit in 1833 | inactive
GRK6 | 3.14 | 6.59 | not a hit in A549 | not a hit in 1833 | inactive

Reformatted: results already given.
STK17A: fold over scrambled siRNA, A549 = 1.1; fold over scrambled siRNA, 1833 = 2.18; hit in A549 = not a hit in A549; hit in 1833 = not a hit in 1833; Call = inactive
PTK7: fold over scrambled siRNA, A549 = 1.45; fold over scrambled siRNA, 1833 = 7.81; hit in A549 = not a hit in A549; hit in 1833 = not a hit in 1833; Call = inactive
CDKL3: fold over scrambled siRNA, A549 = 3.76; fold over scrambled siRNA, 1833 = 6.27; hit in A549 = not a hit in A549; hit in 1833 = not a hit in 1833; Call = inactive
PIK3CG: fold over scrambled siRNA, A549 = 3.27; fold over scrambled siRNA, 1833 = 1.47; hit in A549 = not a hit in A549; hit in 1833 = not a hit in 1833; Call = inactive
YES1: fold over scrambled siRNA, A549 = 1.98; fold over scrambled siRNA, 1833 = 2.38; hit in A549 = not a hit in A549; hit in 1833 = not a hit in 1833; Call = inactive
MAPK15: fold over scrambled siRNA, A549 = 1.25; fold over scrambled siRNA, 1833 = 1.33; hit in A549 = not a hit in A549; hit in 1833 = not a hit in 1833; Call = inactive
ALK: fold over scrambled siRNA, A549 = 1.76; fold over scrambled siRNA, 1833 = 11.9; hit in A549 = not a hit in A549; hit in 1833 = hit in 1833
BRD2: fold over scrambled siRNA, A549 = 2.11; fold over scrambled siRNA, 1833 = 8.2; hit in A549 = not a hit in A549; hit in 1833 = not a hit in 1833; Call = inactive
PDK4: fold over scrambled siRNA, A549 = 5; fold over scrambled siRNA, 1833 = 7.78; hit in A549 = not a hit in A549; hit in 1833 = not a hit in 1833; Call = inactive
POMK: fold over scrambled siRNA, A549 = 1.79; fold over scrambled siRNA, 1833 = 2.33; hit in A549 = not a hit in A549; hit in 1833 = not a hit in 1833; Call = inactive
POMK: fold over scrambled siRNA, A549 = 1.03; fold over scrambled siRNA, 1833 = 3.53; hit in A549 = not a hit in A549; hit in 1833 = not a hit in 1833; Call = inactive
BMX: fold over scrambled siRNA, A549 = 4.21; fold over scrambled siRNA, 1833 = 2.15; hit in A549 = not a hit in A549; hit in 1833 = not a hit in 1833; Call = inactive
